Assay: in vitro
Conditions: cat, ventricular myocytes

inhibition at 0.01 µM: 0% | inhibition at 0.1 µM: 0% | inhibition at 1 µM: 0%
SMILES: CC(C)(C(=O)O)c1ccc(C(O)CCCN2CCC(C(O)(c3ccccc3)c3ccccc3)CC2)cc1 (racemic) [Terfenadine carboxylate, 4-[1-hydroxy-4-(4-hydroxydiphenylmethyl-1-piperidinyl)butyl]-α,α-dimethylbenzeneacetic acid]
